Some of the results follow. These are further read-outs of the screen, such as a control signal, another cell line or another target. No call is given for them. Compounds called inactive in the main read-out are mostly missing here. The note in brackets gives the kind of curve behind each potency; many fits are weak.
Assay: qHTS Assay for Lipid Storage Modulators in Drosophila S3 Cells;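 for cell number change: cells counted by Cell Tracker Red CMTPX staining in the red channel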
Conditions: BODIPY lipid droplet fluorescence, 18-24 h; for cell number change: measured here: cell count max response, cells fed with added oleic acid
Procedure, shortened: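 Laser-scanning cytometry quantifies lipid droplet accumulation (500–530 nm total intensity; droplet/cell object ratio) in oleic acid-fed (400 uM added) Drosophila S3 cells treated with a concentration series. 20 uM Triacsin C defined 100% inhibition.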

[1] = measured here: cell number channel AC50, cells fed with added oleic acid
[2] = measured here: lipid fluorescence (Fed channel) AC50, cells fed with added oleic acid

| SMILES | cell number change [%] | AC50 [1] | AC50 [2] |
| --- | --- | --- | --- |
| COc1cccc(/C=N/NC(=O)CNC(=O)c2ccc(S(=O)(=O)N3CCOCC3)cc2)c1OC | 5.79 | 0.731 µM [falling, single point] | 0.146 µM [rising, full curve, poor fit] |
| c1ccc(-c2nnc(CN3CCN(C(c4ccccc4)c4ccccc4)CC3)o2)cc1 | -8.16 | – | – |
| COc1ccc(S(=O)(=O)NNC(=O)Nc2ccc(C)cc2C)c(OC)c1 | -8.91 | – | 0.58 µM [rising, single point] |
| CNc1c(N)n(Cc2ccccc2)c(=O)[nH]c1=O | 43 | – | – |
| CC1(C)CC(=O)C2=C(C1)NC1=C(C(=O)c3ccccc31)C2c1ccc(O)cc1 (configuration not stated) | 3.85 | – | 0.184 µM [rising, full curve, poor fit] |
| COc1cc(C(=O)Nc2ccc(C(=O)O)cc2)ccc1OC(C)=O | – | 0.92 µM [falling, partial curve, poor fit] | 0.731 µM [falling, partial curve, poor fit] |
| N#Cc1c(NC(=O)C2CCCO2)sc2c1CCCCC2 (configuration not stated) | 45.5 | 32.6 µM [rising, partial curve, poor fit] | – |
| COc1ccccc1N1C(=O)CC(Sc2n[nH]c(-c3cccc(C)c3)n2)C1=O (configuration not stated) | 28.7 | – | 20.6 µM [rising, partial curve, poor fit] |
| CCC(NS(=O)(=O)c1ccc(C)cc1)C(=O)N1CCC2(O)CCCCC2C1 (configuration not stated) | 15.1 | – | 2.06 µM [falling, partial curve] |
| Cc1cccc(CSc2nnc3c(n2)[nH]c2ccccc23)c1 | -37.2 | 29.1 µM [falling, single point] | 32.6 µM [falling, single point] |
| CC(NC(=O)CSc1ncnc2nc[nH]c12)c1ccccc1 (configuration not stated) | -47 | 0.651 µM [falling, full curve, poor fit] | – |
| Cc1cccc(C)c1NC(=O)c1c[nH]c2ccccc12 | 12.8 | – | 14.6 µM [rising, partial curve, poor fit] |
| CC(=O)Nc1ccc(NS(=O)(=O)c2ccc(Cl)s2)cc1 | 146 | – | 0.58 µM [rising, single point] |
| C=CCn1c(=O)n2ncnc2c2c3c(sc21)CCCC3 | – | 0.651 µM [rising, full curve] | 9.2 µM [rising, partial curve] |
| Cc1ccc(N(CC(=O)Nc2cc(C)cc(C)c2)S(=O)(=O)c2c(C)noc2C)cc1 | 38.8 | 29.1 µM [rising, single point] | 6.51 µM [falling, single point] |
| CC(=O)c1cccc(NC(=O)CCS(=O)(=O)c2cccc3nsnc23)c1 | 13.7 | – | 0.116 µM [falling, full curve, poor fit] |
| O=C(NCCOc1ccccc1)C1CCC(=O)N(CCCN2CCCC2=O)C1 (configuration not stated) | 0.578 | – | – |
| CCOC(=O)Nc1c(C(=O)OC)[nH]c2cccc(OC)c12 | – | 0.164 µM [falling, full curve, poor fit] | 0.731 µM [falling, single point] |
| CC(C)CCNC(=O)COC(=O)/C=C/c1ccc2ccccc2n1 | 30.3 | – | 0.58 µM [falling, full curve] |

Complete entries from above.
CNc1c(N)n(Cc2ccccc2)c(=O)[nH]c1=O is listed with cell number change [%]: 43
COc1cc(C(=O)Nc2ccc(C(=O)O)cc2)ccc1OC(C)=O is listed with AC50 [1]: 0.92 µM [falling, partial curve, poor fit]; AC50 [2]: 0.731 µM [falling, partial curve, poor fit]

Remaining list, next part.

| SMILES | cell number change [%] | AC50 [1] | AC50 [2] |
| --- | --- | --- | --- |
| O=C(CSc1nc(-c2ccccc2)nc2c1Cc1ccccc1O2)Nc1ccc(C(=O)O)cc1 | -22.2 | 0.82 µM [rising, single point] | – |
| CCn1cc(SCC(N)=O)c2ccccc21 | -71.6 | 29.1 µM [falling, single point] | 29.1 µM [falling, single point] |
| N#Cc1ccccc1CSc1ncccc1C(=O)O | 6.85 | – | – |
| C=C(C)c1cccc(C(C)(C)NC(=O)Nc2ccc(OC)cc2)c1 | 30.5 | – | 0.259 µM [falling, full curve, poor fit] |
| CC(=O)c1cccc(NC(=O)c2ccoc2C)c1 | 15.5 | – | – |
| Cc1ccc(Nc2nc3ccccc3[nH]2)nc1 | -36.5 | 16.4 µM [falling, single point] | 16.4 µM [falling, partial curve] |
| O=C(Nc1ccc(S(=O)(=O)N2CCc3ccccc3C2)cc1)C1CCCO1 (configuration not stated) | 7.66 | 4.61 µM [falling, partial curve, poor fit] | 23.1 µM [falling, single point] |
| Cc1cc(/C=N/NC(=O)COc2cccc3cccnc23)c(C)n1-c1ccc(O)cc1 | 22 | – | 6.51 µM [rising, partial curve, poor fit] |
| CC1=C(C(=O)N2CCCC(CCC(=O)NCc3ccccc3F)C2)OCCO1 (configuration not stated) | -18.1 | 2.06 µM [falling, partial curve] | 0.651 µM [falling, single point] |
| CCOC(=O)N1CCN(C(=O)CNC(=O)c2nn(-c3ccc(OC)c(Cl)c3)c(=O)c3ccccc23)CC1 | -42.1 | 0.731 µM [falling, partial curve] | – |
| COc1ccccc1OCC(=O)Nc1ccc(S(=O)(=O)Nc2onc(C)c2C)cc1 | 10.4 | – | 6.51 µM [rising, single point] |
| O=C(NCc1ccco1)C(Cc1ccccc1)NS(=O)(=O)c1cccc2nsnc12 (configuration not stated) | 20.9 | – | – |
| Nc1nc(N)c2sc3nc4c(cc3c2n1)CCC4 | 12.3 | – | 29.1 µM [rising, single point] |
| CCOC(=O)Cc1sc(N)nc1C | -0.3 | – | 29.1 µM [rising, single point] |
| COc1ccc(C2SCC(C(=O)O)N2C(C)=O)cc1 (configuration not stated) | -67.3 | 16.4 µM [falling, partial curve] | 25.9 µM [falling, partial curve] |
| O=C(CC1C(=O)NCCN1Cc1ccccc1C(F)(F)F)NC1CCC1 (configuration not stated) | 41.7 | 14.6 µM [rising, partial curve, poor fit] | 4.11 µM [rising, partial curve, poor fit] |
| CS(=O)(=O)N1CCC(C(=O)NCCN2CCN(Cc3ccccc3)CC2)CC1 | -0.51 | – | – |
| Cc1cc(C)n2nc(C(=O)Nc3ccc4c(c3)OCCO4)nc2n1 | 48.5 | 18.4 µM [rising, single point] | 29.1 µM [rising, single point] |

— PubChem BioAssay AID2685 (National Center for Advancing Translational Sciences (NCATS), 2010)
